This passage reports binding results from PMC4063743.

These are yes or no findings as the source states them, for the method shown. In cells and extracts the contact can be indirect. Binding calls can cover weak binding; strength is not graded here. Sequences can lack the tags named with a protein.

The target in this experiment is T1, GST-Vvl fusion protein (Tribolium Ventral veins lacking/Drifter) (Tribolium castaneum) (UniProt C0KZ11).
T1 sequence: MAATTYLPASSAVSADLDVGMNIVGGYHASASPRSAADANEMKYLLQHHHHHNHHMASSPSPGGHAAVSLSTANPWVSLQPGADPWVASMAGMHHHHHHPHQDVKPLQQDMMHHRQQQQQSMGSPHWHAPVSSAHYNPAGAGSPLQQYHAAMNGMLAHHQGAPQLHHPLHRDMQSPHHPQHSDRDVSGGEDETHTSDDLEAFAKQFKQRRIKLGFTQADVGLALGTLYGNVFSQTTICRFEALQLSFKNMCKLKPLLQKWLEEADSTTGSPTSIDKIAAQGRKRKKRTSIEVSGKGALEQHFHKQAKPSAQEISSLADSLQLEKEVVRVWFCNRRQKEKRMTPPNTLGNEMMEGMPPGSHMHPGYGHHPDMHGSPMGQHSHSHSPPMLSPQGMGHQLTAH
Briefly: pull-down; GST-Vvl held on Glutathione Sepharose 4B, incubated with Flag-Met, Flag-EcRA, Flag-EcRB and/or Flag-Usp for 2 hours at 4°C; Flag-tagged protein detected by anti-Flag M2 blot; only the target purified.
For the substance “Flag-EcRA fusion protein (Tribolium Ecdysone receptor isoform A)”, the binding entry was “binds”.

As to “Flag-EcRB fusion protein (Tribolium Ecdysone receptor isoform B)”, the binding result is listed as “binds”.

As for “Flag-Met fusion protein (Tribolium Methoprene-tolerant)”, the binding entry is recorded as “no binding”.
